Measured values from the supplement of paper PMC10689618.
Counter-ions that a name gives are not always drawn. Some of the results follow. Repeats are few or missing, and single values can be far off.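 Primary human fetal astrocytes engulfed labelled rat cortical synaptosomes, measured as a red/green ratio corrected for calcein live-cell signal and scaled to the plate median. Toxicity meant calcein falling over 30%; decreased phagocytosis meant below 70% of median above 5 µM.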

How the values were obtained:
[1] = tested on: Human fetal astrocytes; test: loss of total cells relative to no-compound high-control median (toxicity); higher = more toxic (fewer cells); conditions: 24 h
[2] = tested on: Human fetal astrocytes; test: synaptosome phagocytosis (pHrodo/calcein intensity ratio) relative to plate median of data wells; higher = more phagocytosis; conditions: 24 h

| Compound | loss of total cells ([1]; 1.39 µM) [%] | loss of total cells ([1]; 2.78 µM) [%] | loss of total cells ([1]; 5.56 µM) [%] | loss of total cells ([1]; 11.11 µM) [%] | loss of total cells ([1]; 22.22 µM) [%] | synaptosome phagocytosis ([2]; 1.39 µM) [%] | synaptosome phagocytosis ([2]; 2.78 µM) [%] | synaptosome phagocytosis ([2]; 5.56 µM) [%] | synaptosome phagocytosis ([2]; 11.11 µM) [%] | synaptosome phagocytosis ([2]; 22.22 µM) [%] |
| --- | --- | --- | --- | --- | --- | --- | --- | --- | --- | --- |
| C[N+](C)(C)CCC(=O)c1cccc2ccccc12 [2-(alpha-Naphthoyl)ethyltrimethylammonium iodide] | -6.2 | -7.7 | 3.3 | 22.9 | 62.6 | 121 | 107 | 64.5 | 73.2 | 34.3 |
| Fc1ccc(C(c2ccc(F)cc2)N2CCN(C/C=C/c3ccccc3)CC2)cc1 [Flunarizine dihydrochloride] | 5.4 | -29.9 | -15.6 | 13 | 33.6 | 84.6 | 75.1 | 76.4 | 91.7 | 57.6 |
| Cc1cc(C)c(NC(=O)C[C@H](CC(=O)O)c2cccc3ccccc23)c(C(=O)N2CCC3(CCCC3)CC2)c1 | -8.1 | -4.1 | 19.2 | 2.9 | 23.4 | 106 | 116 | 88.6 | 95.9 | 86.8 |
| COc1ccccc1CNCCCCCCNCCCCCCCCNCCCCCCNCc1ccccc1OC [Methoctramine tetrahydrochloride] | -10.9 | -5.9 | 6.1 | -3.8 | 6.5 | 82.5 | 113 | 87.4 | 62.5 | 89.5 |
| N=C(N)c1ccc(N)cc1 [4-Aminobenzamidine dihydrochloride] | -34.5 | -21.1 | -25.3 | -13 | 3.4 | 87.3 | 91.1 | 62.7 | 124 | 81.9 |
| CN(C)CC/C=C1/c2ccccc2Sc2ccc(Cl)cc21 [Chlorprothixene hydrochloride] | -21.7 | -15.3 | 1.4 | -6.7 | 10.9 | 65.2 | 57.7 | 75.3 | 80.7 | 93.4 |
| NC(N)=NCCNS(=O)(=O)c1cccc2cnccc12 [HA-1004 hydrochloride] | -3.8 | -26.5 | -5.8 | -12.1 | -29.6 | 101 | 90.6 | 112 | 122 | 86.5 |
| Nc1cc(=O)[nH]c(N)n1 [2,6-Diamino-4-pyrimidinone] | -11.3 | -0.9 | -12.3 | -18.4 | -14.4 | 95.3 | 109 | 109 | 107 | 128 |
| CCCCCCCCCCCCCCCCCCNC(=O)OCC(COP(=O)([O-])OCC[n+]1ccsc1)OC (stereo not given) | 12.7 | -3.9 | 3.4 | -2.7 | -23.9 | 87.3 | 76.3 | 117 | 91.4 | 127 |
| O=C(O)C1CCCNC1 (racemic) [(±)-Nipecotic acid] | 9.2 | -0.3 | -3.2 | 3.1 | 4.1 | 145 | 131 | 112 | 102 | 135 |
| NC(N)=NC(N)=Nc1cccc(Cl)c1 [1-(m-Chlorophenyl)-biguanide hydrochloride] | 11.3 | -12.8 | 12.3 | 1.3 | -12.8 | 98.3 | 94.7 | 99.9 | 108 | 89.1 |
| O=C1NC(=O)C(c2ccccc2)(c2ccccc2)N1 [5,5-Diphenylhydantoin] | -13.8 | -15.4 | 3.3 | 4.9 | -2.4 | 130 | 105 | 131 | 122 | 126 |
| CC(C)(Sc1ccc(CCN(CCCCC2CCCCC2)C(=O)NC2CCCCC2)cc1)C(=O)O | 1.3 | -12.8 | -0.8 | -17.5 | 0.8 | 110 | 104 | 85.7 | 97.2 | 73.7 |
| NCCC1CCCC(CCN)N1 (stereo not given) [MDL 26,630 trihydrochloride] | -14.7 | 5.9 | -8.9 | 20 | 19.6 | 124 | 116 | 118 | 108 | 158 |
| COc1ccc2c(c1OC)C(=O)O[C@@H]2[C@H]1c2c(cc3c(c2OC)OCO3)CCN1C [Noscapine hydrchloride] | 4.3 | 11.3 | 4.2 | 8.6 | 13.1 | 113 | 87.5 | 97.2 | 94.2 | 115 |
| COc1ccc2[nH]cc(CCNC(C)=O)c2c1 [Melatonin] | -18.5 | -7.7 | -1.4 | -17.1 | 23.4 | 83.6 | 93.8 | 86.3 | 114 | 78.8 |
| Nc1ncnc2c1nc(Br)n2C1OC2COP(=O)(O)O[C@@H]2C1O (stereo not given in full) [8-Bromo-cAMP sodium] | -5.5 | -5.1 | -6.9 | -3.1 | 5.6 | 115 | 132 | 86.2 | 112 | 108 |
| NC(=O)c1ccccc1 [Benzamide] | -9.2 | -1.2 | 9.7 | -10.3 | 13.2 | 118 | 87.4 | 96.3 | 74.2 | 75.6 |
| Cc1cc(O)c2c(c1)C(=O)c1cc(O)cc(O)c1C2=O [Emodin] | -12.1 | -17.1 | 0 | -6.7 | 0.8 | 100 | 103 | 99.8 | 81.7 | 73.3 |

| Compound | loss of total cells ([1]; 1.39 µM) [%] | loss of total cells ([1]; 2.78 µM) [%] | loss of total cells ([1]; 5.56 µM) [%] | loss of total cells ([1]; 11.11 µM) [%] | loss of total cells ([1]; 22.22 µM) [%] | synaptosome phagocytosis ([2]; 1.39 µM) [%] | synaptosome phagocytosis ([2]; 2.78 µM) [%] | synaptosome phagocytosis ([2]; 5.56 µM) [%] | synaptosome phagocytosis ([2]; 11.11 µM) [%] | synaptosome phagocytosis ([2]; 22.22 µM) [%] |
| --- | --- | --- | --- | --- | --- | --- | --- | --- | --- | --- |
| CCCCNC(=O)NS(=O)(=O)c1ccc(C)cc1 [Tolbutamide] | -5.9 | -3.3 | 4.5 | -0.4 | -3.3 | 124 | 118 | 106 | 101 | 104 |
| CC(C)NCC(O)c1cc(O)cc(O)c1 (stereo not given) [Metaproterenol hemisulfate] | 9 | 2.3 | 0.5 | 8.6 | 17.8 | 114 | 92.4 | 83.5 | 126 | 136 |
| c1ccc(-c2ccccn2)nc1 [2,2'-Bipyridyl] | 6.3 | -4.3 | -0.8 | 4 | -0.8 | 109 | 124 | 71.7 | 92.3 | 119 |
| C[C@@H](Oc1ccc(Oc2cnc3ccc(Cl)cc3n2)cc1)C(=O)O | -12.1 | -11.7 | -2.2 | -23.4 | -22.2 | 104 | 99.9 | 104 | 109 | 133 |
| NCCC[C@](N)(C(=O)O)C(F)F (racemic) [DL-alpha-Difluoromethylornithine hydrochloride] | -16.3 | -1.7 | -4.9 | -9.4 | -17.6 | 86.2 | 117 | 92.5 | 86.8 | 93.4 |
| COc1ccc(NC(=O)c2ccc(-c3ccc(-c4noc(C)n4)cc3C)cc2)cc1N1CCN(C)CC1 | -20.4 | 1.4 | 4.2 | 25.7 | 28 | 82.3 | 93.3 | 75 | 72.6 | 40 |
| CCCCCCCC/C=C\CCCCCCCC(=O)NCCc1ccc(O)c(O)c1 [N-Oleoyldopamine] | -1.6 | 16.5 | 40.4 | 75.5 | 73.3 | 94.1 | 87.8 | 110 | 79.9 | 21.8 |
| O=C(O)CP(=O)(O)O [Phosphonoacetic acid] | -14.6 | -30.2 | -5.6 | 4.2 | -14 | 113 | 110 | 116 | 96.9 | 91.3 |
| CCCOC(=O)c1c(-c2ccccc2)nc(CC)c(C(=O)SCC)c1CCC | -14.7 | 5.9 | 8 | 36.2 | 43 | 99.7 | 51.6 | 126 | 63.7 | 54.5 |
| CC(C)(C)[C@]1(O)CCN2C[C@H]3c4ccccc4CCc4cccc(c43)[C@@H]2C1 (racemic) [(±)-Butaclamol hydrochloride] | -12.8 | -5.7 | -25.3 | -18.4 | -11.7 | 79.2 | 79.5 | 76.4 | 75.2 | 76.1 |
| Cc1ccc(S(=O)(=O)N[C@@H](Cc2ccccc2)C(=O)CCl)cc1 [N-p-Tosyl-L-phenylalanine chloromethyl ketone] | -23.3 | -14.7 | -2.2 | -1.1 | 65 | 82.3 | 111 | 97 | 58.7 | 31.4 |
| Nc1ncnc2c1ncn2[C@@H]1O[C@H](CO)[C@@H](O)[C@H]1O [Adenosine] | 2.9 | -9.9 | -25.3 | -4.9 | 11.7 | 138 | 122 | 102 | 110 | 108 |
| O=C1C(SCCO)=C(SCCO)C(=O)c2ccccc21 | 5.4 | -9.4 | 5.8 | -4 | 8.8 | 92.2 | 71 | 111 | 62.5 | 91.2 |
| C=C/C(C)=C/[C@@]1(C)SC(=O)C(C)=C1O [Thiolactomycin] | -10.9 | 12.2 | 1.4 | -1 | 15 | 84 | 101 | 129 | 106 | 104 |
| COC(=O)C1=C(C)NC(C)=C([N+](=O)[O-])C1c1ccccc1C(F)(F)F (racemic) | -16.5 | -7.2 | -13.4 | -26.5 | -1.9 | 109 | 104 | 87.5 | 83.9 | 110 |
| CC#C[C@]1(O)CC[C@H]2[C@@H]3CCC4=CC(=O)CCC4=C3[C@@H](c3ccc(N(C)C)cc3)C[C@@]21C [Mifepristone] | 7.1 | -0.5 | -4.2 | -3.8 | -13.1 | 99.5 | 95.9 | 94.1 | 99.8 | 86.3 |
| CN1CCN(CC/C=C2/c3ccccc3Sc3ccc(S(=O)(=O)N(C)C)cc32)CC1 [Thiothixene hydrochloride] | -18.3 | 7.5 | 1.1 | 34.1 | 13.2 | 98.3 | 109 | 110 | 77.1 | 72.4 |
| C1COC(NC(C2CC2)C2CC2)=N1 [Rilmenidine hemifumarate] | -20.2 | -25.4 | -1.7 | -23.4 | -11.5 | 98.8 | 105 | 118 | 116 | 82.8 |
| CC(=O)[C@@]1(O)CC[C@H]2[C@@H]3CCC4=CC(=O)CC[C@]4(C)[C@H]3CC[C@@]21C [17alpha-hydroxyprogesterone] | -1.3 | -29.9 | -5.8 | -22.9 | -11.2 | 118 | 119 | 94.1 | 105 | 127 |

An excerpt from above in order of number of heavy atoms, descending.

| Compound | loss of total cells ([1]; 1.39 µM) [%] | loss of total cells ([1]; 2.78 µM) [%] | loss of total cells ([1]; 5.56 µM) [%] | loss of total cells ([1]; 11.11 µM) [%] | loss of total cells ([1]; 22.22 µM) [%] | synaptosome phagocytosis ([2]; 1.39 µM) [%] | synaptosome phagocytosis ([2]; 2.78 µM) [%] | synaptosome phagocytosis ([2]; 5.56 µM) [%] | synaptosome phagocytosis ([2]; 11.11 µM) [%] | synaptosome phagocytosis ([2]; 22.22 µM) [%] |
| --- | --- | --- | --- | --- | --- | --- | --- | --- | --- | --- |
| CC#C[C@]1(O)CC[C@H]2[C@@H]3CCC4=CC(=O)CCC4=C3[C@@H](c3ccc(N(C)C)cc3)C[C@@]21C [Mifepristone] | 7.1 | -0.5 | -4.2 | -3.8 | -13.1 | 99.5 | 95.9 | 94.1 | 99.8 | 86.3 |
| CC(=O)[C@@]1(O)CC[C@H]2[C@@H]3CCC4=CC(=O)CC[C@]4(C)[C@H]3CC[C@@]21C [17alpha-hydroxyprogesterone] | -1.3 | -29.9 | -5.8 | -22.9 | -11.2 | 118 | 119 | 94.1 | 105 | 127 |
| O=C1C(SCCO)=C(SCCO)C(=O)c2ccccc21 | 5.4 | -9.4 | 5.8 | -4 | 8.8 | 92.2 | 71 | 111 | 62.5 | 91.2 |
